Results deposited as PubChem BioAssay AID1224830 (NIAID, 2016).

Aim: 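Genes whose knock-down alters the TNF-alpha reporter response to LPS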 (primary screen)
Cell system: human THP-1 monocytic leukaemia cells, TNF dual-luciferase reporter clone, PMA-differentiated to macrophage-like cells
Reagents: siRNA pool against human genes, 50 nM
Time to read-out: LPS for 4 h, given about 3 days after siRNA transfection
Conditions: bacterial LPS (TLR4 ligand), 10 ng/ml
Detection: 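TNF firefly reporter luminescence divided by renilla, normalised to the plate median, then turned into a robust z-score for each replicate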
Direction: TNF reporter robust z-score: higher = stronger TNF reporter response to LPS
Call rule: 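Each well counts as active if its z-score is over 2.8 or under -1.5; controls are left without a call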
This is a random part of about 18,000 reagents tested. About 2,900 of them (16%) were called active. 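Calls are made per well; low scores hint the gene aids the LPS response, high scores that it dampens it.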 Repeated entries: four replicate wells of each siRNA pool.

TNF reporter robust z-score | Call | gene
-0.3 | inactive | PKNOX1 (PBX/knotted 1 homeobox 1)
-1.14 | inactive | PKNOX1 (PBX/knotted 1 homeobox 1)
1.25 | inactive | PKNOX1 (PBX/knotted 1 homeobox 1)
1.42 | inactive | PKNOX1 (PBX/knotted 1 homeobox 1)
-0.52 | inactive | DRD3 (dopamine receptor D3)
-1.17 | inactive | DRD3 (dopamine receptor D3)
-1.05 | inactive | DRD3 (dopamine receptor D3)
-0.09 | inactive | DRD3 (dopamine receptor D3)
0.11 | inactive | UNC93A (unc-93 homolog A)
1.91 | inactive | UNC93A (unc-93 homolog A)
3.6 | active | UNC93A (unc-93 homolog A)
2.81 | active | UNC93A (unc-93 homolog A)
0.58 | inactive | SDC1 (syndecan 1)
1.74 | inactive | SDC1 (syndecan 1)
2.37 | inactive | SDC1 (syndecan 1)
2.03 | inactive | SDC1 (syndecan 1)
-0.58 | inactive | PRADC1 (protease associated domain containing 1)
-0.08 | inactive | PRADC1 (protease associated domain containing 1)
-0.65 | inactive | PRADC1 (protease associated domain containing 1)
-0.09 | inactive | PRADC1 (protease associated domain containing 1)
-1.28 | inactive | RWDD4 (RWD domain containing 4)
-0.75 | inactive | RWDD4 (RWD domain containing 4)
-1.14 | inactive | RWDD4 (RWD domain containing 4)
-1.12 | inactive | RWDD4 (RWD domain containing 4)
0.13 | inactive | HSPA9 (heat shock protein family A (Hsp70) member 9)
0.64 | inactive | HSPA9 (heat shock protein family A (Hsp70) member 9)
0.11 | inactive | HSPA9 (heat shock protein family A (Hsp70) member 9)
0.18 | inactive | HSPA9 (heat shock protein family A (Hsp70) member 9)
1.03 | inactive | C8orf76 (chromosome 8 open reading frame 76)
2.05 | inactive | C8orf76 (chromosome 8 open reading frame 76)
1.69 | inactive | C8orf76 (chromosome 8 open reading frame 76)
2.57 | inactive | C8orf76 (chromosome 8 open reading frame 76)
-0.05 | inactive | APOBEC3A (apolipoprotein B mRNA editing enzyme catalytic subunit 3A)
1.03 | inactive | APOBEC3A (apolipoprotein B mRNA editing enzyme catalytic subunit 3A)
0.28 | inactive | APOBEC3A (apolipoprotein B mRNA editing enzyme catalytic subunit 3A)
1.73 | inactive | APOBEC3A (apolipoprotein B mRNA editing enzyme catalytic subunit 3A)
0.06 | inactive | CLEC1A (C-type lectin domain family 1 member A)
-0.4 | inactive | CLEC1A (C-type lectin domain family 1 member A)
0.24 | inactive | CLEC1A (C-type lectin domain family 1 member A)
1.28 | inactive | CLEC1A (C-type lectin domain family 1 member A)
-0.65 | inactive | CMPK2 (cytidine/uridine monophosphate kinase 2)
0.02 | inactive | CMPK2 (cytidine/uridine monophosphate kinase 2)
-0.49 | inactive | CMPK2 (cytidine/uridine monophosphate kinase 2)
-0.44 | inactive | CMPK2 (cytidine/uridine monophosphate kinase 2)
-1.49 | inactive | PPFIBP1 (PPFIB scaffold protein 1)
-0.65 | inactive | PPFIBP1 (PPFIB scaffold protein 1)
-0.33 | inactive | PPFIBP1 (PPFIB scaffold protein 1)
-0.47 | inactive | PPFIBP1 (PPFIB scaffold protein 1)
-1.63 | active | OR8J3 (olfactory receptor family 8 subfamily J member 3)
-1.88 | active | OR8J3 (olfactory receptor family 8 subfamily J member 3)
-1.83 | active | OR8J3 (olfactory receptor family 8 subfamily J member 3)
-1.79 | active | OR8J3 (olfactory receptor family 8 subfamily J member 3)
0.23 | inactive | GAL (galanin and GMAP prepropeptide)
0.06 | inactive | GAL (galanin and GMAP prepropeptide)
0.71 | inactive | GAL (galanin and GMAP prepropeptide)
0.16 | inactive | GAL (galanin and GMAP prepropeptide)
-0.25 | inactive | PLA2G1B (phospholipase A2 group IB)
-0.13 | inactive | PLA2G1B (phospholipase A2 group IB)
-0.38 | inactive | PLA2G1B (phospholipase A2 group IB)
-0.53 | inactive | PLA2G1B (phospholipase A2 group IB)
1.7 | inactive | FLNC (filamin C)
1.28 | inactive | FLNC (filamin C)
0.38 | inactive | FLNC (filamin C)
2.07 | inactive | FLNC (filamin C)
– | inactive | ZNF302 (zinc finger protein 302)
-0.15 | inactive | ZNF302 (zinc finger protein 302)
-0.18 | inactive | ZNF302 (zinc finger protein 302)
-0.19 | inactive | ZNF302 (zinc finger protein 302)
-0.19 | inactive | SERPINA10 (serpin family A member 10)
0.36 | inactive | SERPINA10 (serpin family A member 10)
-0.21 | inactive | SERPINA10 (serpin family A member 10)
-1.27 | inactive | SERPINA10 (serpin family A member 10)
2.53 | inactive | NCKAP1 (NCK associated protein 1)
-0.07 | inactive | NCKAP1 (NCK associated protein 1)
-0.53 | inactive | NCKAP1 (NCK associated protein 1)
0.78 | inactive | NCKAP1 (NCK associated protein 1)
0.14 | inactive | NPIPA1 (nuclear pore complex interacting protein family member A1)
0.62 | inactive | NPIPA1 (nuclear pore complex interacting protein family member A1)
0.49 | inactive | NPIPA1 (nuclear pore complex interacting protein family member A1)
-1.81 | active | FECH (ferrochelatase)
-1.21 | inactive | FECH (ferrochelatase)
-2.01 | active | FECH (ferrochelatase)
-0.86 | inactive | FECH (ferrochelatase)
2.43 | inactive | SFT2D2 (SFT2 domain containing 2)
3.17 | active | SFT2D2 (SFT2 domain containing 2)
2.58 | inactive | SFT2D2 (SFT2 domain containing 2)
1.71 | inactive | SFT2D2 (SFT2 domain containing 2)
0.11 | inactive | ALDH1A3 (aldehyde dehydrogenase 1 family member A3)
0.13 | inactive | ALDH1A3 (aldehyde dehydrogenase 1 family member A3)
0.45 | inactive | ALDH1A3 (aldehyde dehydrogenase 1 family member A3)
0.4 | inactive | ALDH1A3 (aldehyde dehydrogenase 1 family member A3)
-0.69 | inactive | L1CAM (L1 cell adhesion molecule)
-0.72 | inactive | L1CAM (L1 cell adhesion molecule)
-1.65 | active | L1CAM (L1 cell adhesion molecule)
0.05 | inactive | L1CAM (L1 cell adhesion molecule)
0.06 | inactive | IBSP (integrin binding sialoprotein)
1.04 | inactive | IBSP (integrin binding sialoprotein)
-0.49 | inactive | IBSP (integrin binding sialoprotein)
0.94 | inactive | IBSP (integrin binding sialoprotein)
0.01 | inactive | NEFM (neurofilament medium chain)
-0.32 | inactive | NEFM (neurofilament medium chain)
-0.8 | inactive | NEFM (neurofilament medium chain)
0.47 | inactive | NEFM (neurofilament medium chain)
-0.08 | inactive | STAP1 (signal transducing adaptor family member 1)
0.42 | inactive | STAP1 (signal transducing adaptor family member 1)
-0.89 | inactive | STAP1 (signal transducing adaptor family member 1)
-0.92 | inactive | STAP1 (signal transducing adaptor family member 1)
0.49 | inactive | F2RL1 (F2R like trypsin receptor 1)
0.77 | inactive | F2RL1 (F2R like trypsin receptor 1)
0.72 | inactive | F2RL1 (F2R like trypsin receptor 1)
1.62 | inactive | F2RL1 (F2R like trypsin receptor 1)

Reagents listed so far with an active call:
TNF reporter robust z-score | Call | gene
3.6 | active | UNC93A (unc-93 homolog A)
2.81 | active | UNC93A (unc-93 homolog A)
-1.63 | active | OR8J3 (olfactory receptor family 8 subfamily J member 3)
-1.88 | active | OR8J3 (olfactory receptor family 8 subfamily J member 3)
-1.83 | active | OR8J3 (olfactory receptor family 8 subfamily J member 3)
-1.79 | active | OR8J3 (olfactory receptor family 8 subfamily J member 3)
-1.81 | active | FECH (ferrochelatase)
-2.01 | active | FECH (ferrochelatase)
3.17 | active | SFT2D2 (SFT2 domain containing 2)
-1.65 | active | L1CAM (L1 cell adhesion molecule)
